{
  "sequences": {"note": "Amino acid sequences for entries named in this document (tags omitted).", "UniProt Q16875, whole entry": "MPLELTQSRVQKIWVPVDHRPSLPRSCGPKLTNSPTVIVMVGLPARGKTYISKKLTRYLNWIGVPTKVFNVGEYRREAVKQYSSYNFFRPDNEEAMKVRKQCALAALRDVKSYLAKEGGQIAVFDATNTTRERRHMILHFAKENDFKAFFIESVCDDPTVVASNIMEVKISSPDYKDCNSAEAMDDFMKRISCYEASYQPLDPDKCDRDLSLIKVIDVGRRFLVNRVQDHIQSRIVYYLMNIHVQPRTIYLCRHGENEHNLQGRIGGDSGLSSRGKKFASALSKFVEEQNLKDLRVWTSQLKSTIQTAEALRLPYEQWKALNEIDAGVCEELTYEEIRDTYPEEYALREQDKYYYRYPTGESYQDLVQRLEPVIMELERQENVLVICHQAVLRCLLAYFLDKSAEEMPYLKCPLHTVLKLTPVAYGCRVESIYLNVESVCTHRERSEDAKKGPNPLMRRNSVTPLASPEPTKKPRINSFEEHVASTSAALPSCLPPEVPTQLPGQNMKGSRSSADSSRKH", "UniProt Q13882, whole entry": "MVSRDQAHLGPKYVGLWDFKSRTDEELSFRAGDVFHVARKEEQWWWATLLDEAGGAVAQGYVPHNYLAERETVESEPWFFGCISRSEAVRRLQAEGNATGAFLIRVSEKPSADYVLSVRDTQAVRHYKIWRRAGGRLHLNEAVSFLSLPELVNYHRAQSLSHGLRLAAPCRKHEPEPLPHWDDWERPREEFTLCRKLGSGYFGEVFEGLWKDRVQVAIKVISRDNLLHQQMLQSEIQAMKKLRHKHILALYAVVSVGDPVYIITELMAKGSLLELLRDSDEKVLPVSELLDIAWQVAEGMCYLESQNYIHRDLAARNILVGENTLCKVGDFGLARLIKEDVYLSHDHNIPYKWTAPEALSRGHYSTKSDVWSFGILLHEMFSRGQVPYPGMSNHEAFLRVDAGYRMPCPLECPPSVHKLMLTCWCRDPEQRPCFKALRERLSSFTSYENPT"},
  "source": "patent US20180148429A1",
  "about": "(SELVITA S.A., priority 2015, published 2018)",
  "key": {"[1]": {"molecular_target": "Human recombinant His-tagged PFKFB3 (Homo sapiens, UniProt Q16875)", "assay": "PFKFB3 IC50 determination assay (in vitro kinase assay, modified ADP-Glo system)", "format": "biochemical", "conditions": "read-out: PFKFB3 IC50, ATP 20 μM (Km), fructose-6-phosphate 2 μM (Km), 25 nM PFKFB3, 2 h, rt"}, "[2]": {"molecular_target": "BRK (PTK6 protein tyrosine kinase 6) (Homo sapiens, UniProt Q13882)", "assay": "BRK (PTK6 protein tyrosine kinase 6) IC50 determination assay (in vitro kinase assay, ADP-Glo Max)", "format": "biochemical", "conditions": "read-out: BRK IC50, ATP 1600 uM (Km), Poly(Glu, Tyr) 160 uM, 75 nM PTK6, 45 min, RT"}},
  "note": "The match of structure and compound is tentative.",
  "data": [
    {"smiles": "Cn1ccc2ccc(-c3cc(N(C(=O)C(F)(F)F)C4CCNCC4)cc4nccnc34)cc21", "values": [
      {"measurement": "IC50", "setting": "[1]", "result": "1 to 10", "unit": "µM"},
      {"measurement": "IC50", "setting": "[2]", "result": "0.001 to 1", "unit": "µM"}
    ]}
  ]
}
